Results published in patent US8357733B2, “Processes for making silane, hydrophobated silica, silica masterbatch and rubber products” (Industrias Negromex, S.A. de C.V., priority 2008, dated 2013).

Experiment: Attempt to hydrophobate silica with the silane and coagulate masterbatch
Conditions: insoluble silane used to hydrophobate the silica

| Compound | Free silica in the coagulated masterbatch |
| --- | --- |
| CCO[Si](CCCSSCCC[Si](OCC)(OCC)OCC)(OCC)OCC [TESPD, bis-(3-triethoxysilylpropyl)-disulfide] | gross amounts of free silica |
| CO[Si](CCCSSCCC[Si](OC)(OC)OC)(OC)OC [TMSPD, bis-(3-trimethoxysilylpropyl)-disulfide] | gross amounts of free silica |
